# Details: human, in vivo
compound,measurement,value
CC(C)c1c(C(=O)Nc2ccccc2)c(-c2ccccc2)c(-c2ccc(F)cc2)n1CC[C@@H](O)C[C@@H](O)CC(=O)O [atorvastatin],association of CYP3A polymorphisms with PK parameters,no significant association

# Reference: paper PMC7235792, “Effect of the Most Relevant CYP3A4 and CYP3A5 Polymorphisms on the Pharmacokinetic Parameters of 10 CYP3A Substrates” (Biomedicines, 2020)
